From paper PMC11164925 come the findings set out here.

Construct, isoform or probe ends are uncertain for at least one entry.

The data set concerns ParR. As to the kind of experiment: EMSA. As to conditions: 275 ng parC, 24-720 uM ParR, 0.1 ug/uL salmon sperm DNA competitor; 5' biotin on forward primer (biotinylated primer; exact position not stated); 20 mM HEPES pH 7.6, 150 mM KCl, 5 mM MgCl2, 1 mM DTT, 1 mg/ml BSA, 0.1 ug/uL sonicated salmon sperm DNA, 5% glycerol, room temperature 30 min; 1.5% magnesium-agarose gel; recombinant protein; protein details: N-terminal 6-His (pET28a, not cleaved); label: biotin. (A gel shift assay detects complexes by their altered migration in electrophoresis.)

For “CATATGTTGTTACCCGCCAAACAAAACCCAAAAACAACCCATACCCAACCCAATAAAACACCAAAACAAGACAAATAATCATTGATTGATGGTTGAAATGGGGTAAACTTGACAAACAAACCCACTTAAAACCCAAAACATACCCAAACACACACCAAAAAAACACCATAAGGAGTTTTATAAATGTTGGTATTCATTGATGACGGTTCAACAAACATCAAACTGGATCC (double strand) [biotinylated parC (230 bp)]”, the binding result is reported as “binds”.
